The values that follow come from PubChem BioAssay AID298 (DTP/NCI, 2004).

The experiment concerns MX-1 breast xenograft, intrarenal, nude mice, tumor weight. In words: NCI In Vivo Anticancer Drug Screen. Data for tumor model Human Mammary Carcinoma MX-1 Xenograft (intrarenal inoculation) in NU/NU BALB/C (nude) mice. The conditions noted are these: T/C endpoint: mean tumor weight change, higher T/C = larger tumour; for T/C: evaluated on day 11. Summed up: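 Mice w/ transplanted tumors, drug vs vehicle; endpoint survival or tumor size; value = T/C.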

[1] abbreviates: dose: 300.0 mg/kg/injection, schedule: Q04DX003 (ip), vehicle: Klucel (hydroxypropylcellulose) (HPC).

The list shows only some results of the screen, not a fair sample: it gathers tests that were run many times, whatever their T/C, doses with no T/C, and many T/C values between a quarter and a half above the control. Other doses and runs of a compound stand elsewhere. T/C: endpoint of the treated group in % of that of the vehicle group. Schedule codes are those of the source, read here as Q, the interval in days (D) or hours (H), X, the number of doses. Some T/C values are followed by the survivors on the day toxicity was checked, most often the fifth; without a count, all were alive then. Some values lie below zero, which means that the treated tumours became smaller. Some doses were run more than once; their values stand side by side, smallest first. Some entries give survivors of the animals treated and no T/C: the source files T/C as zero there, which appears to mark a toxic dose or a test without result, not a measured value. Counts of survivors are from the toxicity check (mostly the fifth day) where no day follows; animals may have died later. Some structures stand for samples that the source files as different forms (salt, stereo form or complex); doses refer to the form tested.

As to `COc1nc(C(Cl)(Cl)Cl)c(Cl)c(OC)c1Cl`, the T/C was 1, 2, 6 [5 of 6 alive on day 11], 49 % of control (dose: 150.0 mg/kg/injection, schedule: Q04DX003 (ip), vehicle: Klucel (hydroxypropylcellulose) (HPC)) and -58 [5 of 6 alive on day 11], -18, 4, 13 % of control under setting [1]. For the same compound, the survivor count is 0 of 6 on day 11, 1 of 6 on day 11, 2 of 6 on day 11 (dose: 600.0 mg/kg/injection, schedule: Q04DX003 (ip), vehicle: Klucel (hydroxypropylcellulose) (HPC)); 0 of 5 on day 11 (dose: 900.0 mg/kg/injection, schedule: Q04DX003 (ip), vehicle: Klucel (hydroxypropylcellulose) (HPC)); 0 of 6 on day 11 (dose: 1200.0 mg/kg/injection, schedule: Q04DX003 (ip), vehicle: Klucel (hydroxypropylcellulose) (HPC)).

On to `O=C(O)[C@H](Cc1ccccc1)N1C(=O)c2ccccc2C1=O`, for which, where the note is “dose: 1200.0 mg/kg/injection, schedule: Q04DX003 (ip), vehicle: DMSO”, the survivor count is reported as 0 of 6 on day 11.

On to `CN=C(N)c1ccc(N=C(N)c2ccc(C(N)=Nc3ccc(C(N)=NC)cc3)cc2)cc1`, for which the survivor count reads like this: (dose: 60.0 mg/kg/injection, schedule: Q04DX003 (ip), vehicle: saline) 0 of 6 on day 11; (dose: 120.0 mg/kg/injection, schedule: Q04DX003 (ip), vehicle: saline) 0 of 6 on day 11.

As for `COc1cc2c(c(OC)c1OC)-c1ccc(OC)c(=O)cc1[C@@H](NC(C)=O)CC2`, the survivor count (dose: 4.0 mg/kg/injection, schedule: Q04DX003 (ip), vehicle: saline) is 0 of 6 on day 11 and 1 of 6 on day 11; the survivor count (dose: 8.0 mg/kg/injection, schedule: Q04DX003 (ip), vehicle: saline) was 0 of 6 on day 11.

As for `[Cl][Pt][Cl].[NH-]C(CO)C(=O)O` (centres undefined), the survivor count is, setting by setting: (dose: 150.0 mg/kg/injection, schedule: Q04DX003 (ip), vehicle: water) 3 of 6 on day 11; (dose: 300.0 mg/kg/injection, schedule: Q04DX003 (ip), vehicle: water) 0 of 6 on day 11.

For `NC(Cc1ccccc1)C(=O)OCN1C(=O)C2C3C=CC(C2C1=O)C1C2C(=O)N(COC(=O)C(N)Cc4ccccc4)C(=O)C2C31` (centres undefined), the survivor count by setting is: (dose: 128.6 mg/kg/injection, schedule: Q01DX009 (ip), vehicle: water) 1 of 6 on day 11; (dose: 400.0 mg/kg/injection, schedule: Q04DX003 (ip), vehicle: other) 1 of 6 on day 11.

As for `N=C1CCCS1`, for the setting “dose: 150.0 mg/kg/injection, schedule: Q04DX003 (sc), vehicle: saline”, the survivor count is listed as 0 of 6 on day 11.

On to `COc1cc2c(cc1OC)[C@@H]1C(=O)c3ccc4c(c3O[C@@H]1CO2)C[C@H](C(C)C)O4`, for which, under setting [1], the survivor count is 0 of 6 on day 11.

On to `CN(C)/N=N/c1nc[nH]c1C(N)=O`, for which the T/C (dose: 100.0 mg/kg/injection, schedule: Q01DX010 (sc), vehicle: Klucel (hydroxypropylcellulose) (HPC)) is 127 % of control. For the same compound, where the note is “dose: 800.0 mg/kg/injection, schedule: Q01DX010 (sc), vehicle: Klucel (hydroxypropylcellulose) (HPC)”, the survivor count is given as 0 of 3 on day 11.

As to `C=CC1(C)CC(=O)C2(O)C(C)(O1)C(OC(C)=O)C(O)C1C(C)(C)CCC(O)C12C` (centres undefined), the T/C (dose: 4.0 mg/kg/injection, schedule: Q04DX003 (ip), vehicle: DMSO) was 143 % of control; the T/C (dose: 32.0 mg/kg/injection, schedule: Q04DX003 (ip), vehicle: DMSO) is 130 and 131 % of control. For the same compound, for the setting “dose: 128.0 mg/kg/injection, schedule: Q04DX003 (ip), vehicle: DMSO”, the survivor count is 0 of 6 on day 11.

Regarding `CCS/C(SC)=C(/c1ccccc1)[P+](c1ccccc1)(c1ccccc1)c1ccccc1`, the survivor count (dose: 75.0 mg/kg/injection, schedule: Q04DX003 (sc), vehicle: Klucel (hydroxypropylcellulose) (HPC)) is listed as 0 of 6 on day 11.

Consider `COc1cc2c(cc1OC)-c1c3c(cc4c1[C@@H](C2)N(C)CC4)OCO3`, for which the survivor count (dose: 300.0 mg/kg/injection, schedule: Q04DX003 (ip), vehicle: distilled water + alcohol) is listed as 2 of 6 on day 11.

With `COC(=Nc1ccccc1)SSC(C)C`, the survivor count (dose: 1200.0 mg/kg/injection, schedule: Q04DX003 (sc), vehicle: saline with Tween-80) is 1 of 6 on day 11 and the survivor count (dose: 2400.0 mg/kg/injection, schedule: Q04DX003 (sc), vehicle: saline with Tween-80) was 0 of 6 on day 11.

Turning to `O=P1(N(CCCl)CCCl)NCCCO1` (centres undefined), the survivor count is 0 of 3 on day 11 (dose: 100.0 mg/kg/injection, schedule: Q01DX010 (sc), vehicle: saline); 0 of 4 on day 11 (dose: 200.0 mg/kg/injection, schedule: Q01DX010 (sc), vehicle: saline); 0 of 6 on day 11 (dose: 200.0 mg/kg/injection, schedule: Q04DX003 (ip), vehicle: saline); 1 of 3 on day 11 (dose: 200.0 mg/kg/injection, schedule: Q04DX003 (sc), vehicle: saline).

With `C[C@@](O)(/C=C/[C@H]1CC=CC(=O)O1)[C@@H](C[C@@H](O)\C=C/C=C\C=C\CO)OP(=O)(O)O`, for the setting “dose: 3.0 mg/kg/injection, schedule: Q01DX009 (ip), vehicle: other”, the T/C is 128 % of control. In addition, the survivor count runs as follows: (dose: 75.0 mg/kg/injection, schedule: Q04DX003 (sc), vehicle: other) 0 of 6 on day 11; (dose: 150.0 mg/kg/injection, schedule: Q04DX003 (sc), vehicle: other) 0 of 6 on day 11; (dose: 300.0 mg/kg/injection, schedule: Q04DX003 (sc), vehicle: other) 0 of 6 on day 11.

`COc1cc([C@@H]2c3cc4c(cc3[C@@H](OC3OC5COC(C)OC5C(O)C3O)[C@H]3COC(=O)[C@H]23)OCO4)cc(OC)c1O` (some centres undefined): the survivor count was 0 of 6 on day 11 (dose: 32.0 mg/kg/injection, schedule: Q01DX010 (ip), vehicle: saline); 0 of 6 on day 11 and 2 of 5 on day 11 (dose: 64.0 mg/kg/injection, schedule: Q04DX003 (ip), vehicle: saline).

For `COC(=O)c1ccc(N=NN(C)COC(C)=O)cc1`, where the note is “dose: 240.0 mg/kg/injection, schedule: Q04DX003 (ip), vehicle: Klucel (hydroxypropylcellulose) (HPC)”, the T/C is 128 % of control. Further, the survivor count (dose: 480.0 mg/kg/injection, schedule: Q04DX003 (ip), vehicle: Klucel (hydroxypropylcellulose) (HPC)) is on record as 1 of 6 on day 11.

Consider `COC(=O)C1C2CCCN2OC1(C)CO` (centres undefined), for which the T/C reads like this: (dose: 60.0 mg/kg/injection, schedule: Q01DX001 (ip), vehicle: saline) 133 % of control; (dose: 120.0 mg/kg/injection, schedule: Q01DX001 (ip), vehicle: saline) 142 % of control.

Regarding `C=C1C(O)C2(O)OCC34C(CC5C(C)=CC(=O)C(O)C5(C)C23)OC(=O)C(OC(=O)C/C=C(\C)CCCCC)C14` (centres undefined), the survivor count reads like this: (dose: 12.5 mg/kg/injection, schedule: Q04DX003 (ip), vehicle: saline + alcohol) 0 of 6 on day 11; (dose: 25.0 mg/kg/injection, schedule: Q04DX003 (ip), vehicle: saline + alcohol) 0 of 6 on day 11; (dose: 50.0 mg/kg/injection, schedule: Q04DX003 (ip), vehicle: saline + alcohol) 0 of 6 on day 11; (dose: 100.0 mg/kg/injection, schedule: Q04DX003 (ip), vehicle: saline + alcohol) 0 of 6 on day 11.

With `ClCC[N+]12CC[N+](CCCl)(CC1)C2`, the survivor count is recorded as 0 of 3 on day 11 (dose: 400.0 mg/kg/injection, schedule: Q01DX010 (sc), vehicle: saline with Tween-80) and 0 of 6 on day 11 (dose: 600.0 mg/kg/injection, schedule: Q04DX003 (sc), vehicle: water).

In the case of `C=CCNC(=O)c1ccccc1SC(C)=O`, the survivor count is 1 of 6 on day 11 (dose: 600.0 mg/kg/injection, schedule: Q04DX003 (ip), vehicle: saline with Tween-80) and 0 of 6 on day 11 (dose: 1200.0 mg/kg/injection, schedule: Q04DX003 (ip), vehicle: saline with Tween-80).

With `N#Cc1c(-c2ccccc2)c(-c2ccccc2)nn(CC(=O)O)c1=O`, the survivor count is listed as 2 of 6 on day 11 (dose: 400.0 mg/kg/injection, schedule: Q04DX003 (ip), vehicle: distilled water + Tween-80) and 0 of 6 on day 11 (dose: 800.0 mg/kg/injection, schedule: Q04DX003 (ip), vehicle: distilled water + Tween-80).
